# According to the supplement of paper PMC11732987, “Enantioselective OTUD7B fragment discovery through chemoproteomics screening and high-throughput optimisation” (Communications Chemistry, 2025):
# The other results are listed elsewhere or left out. The data scatter; read single values as rough.
# Tested on: T1, MECOM C1119
# T1 sequence (whole entry): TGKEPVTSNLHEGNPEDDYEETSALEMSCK
# Test: log2 mean competition ratio of IA-DTB cysteine labelling (DMSO/compound) (log2 ratio); higher = stronger cysteine engagement by compound
# Conditions: 50 µM; treatment time: 4 h; cell line lysate: HEK293T
# Method: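 IA-DTB competitive cysteine chemoproteomics in HEK293T RIPA lysate. Lysates were treated with compound 29 or 30 at 50 or 200 µM for 4 h, then IA-DTB (500 µM, 1 h), trypsin-digested, NeutrAvidin-enriched and analysed by diaPASEF. Competition ratio = intensity DMSO / intensity compound (n=4 treated, n=64 DMSO); binding: mean log2 CR ≥ 1 and p ≤ 0.05 plus QC filters. Target is the cysteine site.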
row,SMILES,log2 mean competition ratio
1,O=C(CCl)N[C@H]1CCCc2ccccc21,-0.235
2,O=C(CCl)N[C@@H]1CCCc2ccccc21,-0.206

# Same assay, conditions: 200 µM; treatment time: 4 h; cell line lysate: HEK293T
row,SMILES,log2 mean competition ratio
1,O=C(CCl)N[C@H]1CCCc2ccccc21,0.0483
2,O=C(CCl)N[C@@H]1CCCc2ccccc21,-0.166
